Source: publication PMC4538796
Construct, isoform or probe ends are uncertain for at least one entry. For some of these results: No signal at the amounts used counts as a negative.

Amino acid sequences for entries named in this document (tags omitted). A change or cut given only in a name is not applied to a line headed by its entry.
UniProt P03069: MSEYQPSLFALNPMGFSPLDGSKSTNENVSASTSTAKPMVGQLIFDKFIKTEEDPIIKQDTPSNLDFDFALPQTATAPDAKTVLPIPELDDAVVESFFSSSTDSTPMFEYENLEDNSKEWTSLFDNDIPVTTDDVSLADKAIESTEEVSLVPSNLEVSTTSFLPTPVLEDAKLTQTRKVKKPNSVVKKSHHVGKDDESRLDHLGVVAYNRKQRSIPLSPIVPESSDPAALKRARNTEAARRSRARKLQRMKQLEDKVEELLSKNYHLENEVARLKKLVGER

Experiments:
[1] = tested on: GAGAH (GAGA zinc finger/AT-Hook conjugate); assay: EMSA; settings: EMSA: 75 nM dsDNA, rt (GAGAH), 10% native PAGE, 0.5x TBE, 20 C
[2] = target: brH (GCN4 basic region/AT-Hook conjugate) (UniProt P03069); assay: EMSA; settings: 75 nM DNA, EMSA: 75 nM dsDNA, rt (GAGAH), 10% native PAGE, 0.5x TBE, 20 C
[3] = target: brH (GCN4 basic region/AT-Hook conjugate) (UniProt P03069); assay: CD; settings: 5 uM peptide, 1 equiv DNA, phosphate pH 7.5, helix induction; CD: phosphate pH 7.5
[4] = up to 1000 nM peptide, no stable complex, barely any nonspecific complex

CGCGTCATAATTCGCGACGC (double strand) [AT·CG]
binding result [1, 4]: no binding

CGCGTCATCAGCGAGAGCGC (double strand) [AP1hs·GC = GC·GAGA]
binding result ([2]; up to 1000 nM peptide): no binding | binding result [1, 4]: no binding

CGCGTCATAATTGAGAGCGC (double strand) [AP1hs·AT = AT·GAGA]
binding result [3]: binds | binding result ([2]; 0-1000 nM peptide): binds | binding result ([1]; 0-1000 nM peptide, 75 nM DNA): binds

GACGGAATTTGAGAGCGTCG (double strand) [GC·AT]
binding result ([2]; up to 1000 nM peptide): no binding
